{"source": "patent US20150374712A1", "about": "“Combinations of Dopamine D2 Receptor Blockade With Norepinephrine Reuptake Inhibition and with Norepinephrine Alpha 2 Receptor Blockade” (priority 2007, published 2015)", "key": {"alcohol preferring P rat": {"test_system": "alcohol preferring P rat", "assay": "Initiation of alcohol drinking in alcohol-preferring P rats", "format": "in vivo", "description": "All animals were given 24 hours/day access to 10-15% alcohol and water in two separate drinking bottles. Groups of animals (n=6-10/group) received daily injections of the specific drug or drug combination or vehicle for up to 4 weeks."}, "Syrian golden hamster [1]": {"test_system": "Syrian golden hamster", "conditions": "vs vehicle, Example 1 (prior art, FIG. 1, Green et al. 2004); cited from earlier work"}, "Syrian golden hamster [2]": {"test_system": "Syrian golden hamster", "assay": "Initiation of alcohol drinking in hamsters", "conditions": "low dose of clozapine, Example 5, FIG. 5"}}, "note": "For at least one compound, name, drawing or mass did not settle the structure.", "data": [{"smiles": "CN1CCN(C2=Nc3cc(Cl)ccc3Nc3ccccc32)CC1", "note": "[clozapine]", "values": [{"measurement": "initiation of alcohol drinking", "setting": "alcohol preferring P rat; compared to vehicle and haloperidol, Example 3, FIG. 3", "value": "decreases the initiation of alcohol drinking"}, {"measurement": "alcohol preference (the % of liquid consumed that comes from the alcohol bottle)", "setting": "alcohol preferring P rat; during initiation of alcohol drinking, Example 4, FIG. 4", "value": "dramatically decreases alcohol preference"}, {"measurement": "chronic alcohol drinking", "setting": "Syrian golden hamster [1]", "value": "dramatically decreased chronic alcohol drinking"}, {"measurement": "initiation of alcohol drinking", "setting": "Syrian golden hamster [2]", "value": "blunts the initiation of alcohol drinking"}]}]}
